For this experiment, the target named is GFP-tagged CBX2 (transient, HEK293-FT) (human) (UniProt Q14781). Description: co-IP; IP and immunoblot from HEK293-FT cells transfected with GFP-tagged CBX2 alone or with FLAG-tagged CBX4. (A western blot detects proteins with antibodies after separation by electrophoresis.)

The chains behind the UniProt entries cited, without tags or fusion partners.
UniProt Q14781: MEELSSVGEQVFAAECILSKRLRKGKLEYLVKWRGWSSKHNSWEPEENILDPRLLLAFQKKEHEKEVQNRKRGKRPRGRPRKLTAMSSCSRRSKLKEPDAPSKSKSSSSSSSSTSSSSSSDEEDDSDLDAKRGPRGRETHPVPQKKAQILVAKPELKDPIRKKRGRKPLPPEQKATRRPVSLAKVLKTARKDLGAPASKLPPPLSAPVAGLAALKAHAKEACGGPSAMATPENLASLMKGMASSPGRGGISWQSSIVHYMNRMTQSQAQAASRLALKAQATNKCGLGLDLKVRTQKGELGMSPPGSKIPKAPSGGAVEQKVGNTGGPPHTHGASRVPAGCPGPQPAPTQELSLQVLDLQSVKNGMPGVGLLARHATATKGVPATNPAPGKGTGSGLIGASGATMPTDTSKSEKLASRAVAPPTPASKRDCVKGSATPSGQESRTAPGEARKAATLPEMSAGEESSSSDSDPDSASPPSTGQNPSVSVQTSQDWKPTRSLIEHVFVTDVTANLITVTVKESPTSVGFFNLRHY

These are yes or no findings as the source states them, for the method shown. Binding seen in cells or lysates may run through a third protein. Some results given as binding are weak or reduced against the parent protein; the word gives no strength. Sequences can lack the tags named with a protein.

B1: FLAG-tagged CBX4 (enzyme, UniProt O00257 1-560)
chain: MELPAVGEHVFAVESIEKKRIRKGRVEYLVKWRGWSPKYNTWEPEENILDPRLLIAFQNRERQEQLMGYRKRGPKPKPLVVQVPTFARRSNVLTGLQDSSTDNRAKLDLGAQGKGQGHQYELNSKKHHQYQPHSKERAGKPPPPGKSGKYYYQLNSKKHHPYQPDPKMYDLQYQGGHKEAPSPTCPDLGAKSHPPDKWAQGAGAKGYLGAVKPLAGAAGAPGKGSEKGPPNGMMPAPKEAVTGNGIGGKMKIVKNKNKNGRIVIVMSKYMENGMQAVKIKSGEVAEGEARSPSHKKRAADERHPPADRTFKKAAGAEEKKVEAPPKRREEEVSGVSDPQPQDAGSRKLSPTKEAFGEQPLQLTTKPDLLAWDPARNTHPPSHHPHPHPHHHHHHHHHHHHAVGLNLSHVRKRCLSETHGEREPCKKRLTARSISTPTCLGGSPAAERPADLPPAAALPQPEVILLDSDLDEPIDLRCVKTRSEAGEPPSSLQVKPETPASAAVAVAAAAAPTTTAEKPPAEAQDEPAESLSEFKPFFGNIIITDVTANCLTVTFKEYVTV
For B1, the binding result is “binds”.

These data come from PMC5945585.
